Counter-ions that a name gives are not always drawn. ± gives the standard deviation of the averaged measurements. This is one part of the list. This data set is noisy: repeats of one test often differ as much as different tests do.
tested on: A549; assay: surface PD-L1 immunofluorescence intensity relative to IFN-gamma-only control (ratio); higher = more PD-L1 expression; conditions: 10 µM; exposure time 24 h; IFN-gamma 100 ng/mL

Structure (SMILES)	surface PD-L1 immunofluorescence intensity
COc1ccc(O)cc1 [Mequinol]	1.04
CC(C)C[C@@H](C(=O)N[C@H](C(=O)OC1CCCC1)c1ccccc1)[C@H](O)C(=O)NO	0.975
CN[C@@H]1[C@@H](O[C@H]2O[C@H](CO)[C@@H](N)[C@H](O)[C@H]2O)OC2C[C@@H](N)[C@@H](O[C@H]3[C@H](O)[C@@H](O)[C@H](N)C[C@@H]3N)OC2[C@@H]1O (some centres not stated) [Apramycin]	0.997
CC1(C)O[C@H]2CC(=O)OC[C@]23[C@H]2CC[C@@]4(C)[C@H](c5ccoc5)OC(=O)[C@H]5O[C@]54[C@]2(C)C(=O)C[C@@H]13 [Limonin]	1.03
Cc1ccccc1C(=O)Nc1ccc(C(=O)N2CCCC(O)c3cc(Cl)ccc32)c(C)c1 (configuration not stated)	0.974
COc1ccccc1N1CCN(CCN2C(=O)c3ccccc3C(C)(C)C2=O)CC1 [ARC 239 dihydrochloride]	1
CC(=O)O[C@H]1CC[C@@]2(C)C(=CC[C@@H]3[C@@H]2CC[C@]2(C)C(c4cccnc4)=CC[C@@H]32)C1 [Abiraterone Acetate (CB7630)]	0.981
CC(C)c1cc2c(c(O)c1O)[C@@]13CCCC(C)(C)[C@@H]1C[C@@H]2OC3=O [Carnosol]	1.01
CN(C)C(=O)C(CCN1CCC(O)(c2ccc(Cl)cc2)CC1)(c1ccccc1)c1ccccc1 [Loperamide hydrochloride]	0.981 ± 0.026
CC(C(=O)O)c1ccc2c(c1)[nH]c1ccc(Cl)cc12 (configuration not stated) [Carprofen]	0.91
CCCCc1cc2ccccc2c(OCCN(C)C)n1 [Dimethisoquin hydrochloride]	0.979
CC(NC(=O)C(Cc1ccccc1)NC(=O)OCc1ccccc1)C(=O)CF (configuration not stated)	1.05
Cc1cccc(C)c1NC(=O)C(C)N (configuration not stated) [Tocainide hydrochloride]	0.968
O=C1c2c(O)cccc2C([C@@H]2O[C@H](CO)[C@@H](O)[C@H](O)[C@H]2O)c2cc(CO)cc(O)c21 (some centres not stated) [Aloin (Barbaloin)]	0.876
NC(N)=NC(N)=Nc1cccc(Cl)c1 [m-Chlorophenylbiguanide hydrochloride]	1.01
COc1cc(C(=O)NC(=S)Nc2cccc(NC(=O)c3ccccc3)c2)cc(OC)c1OC	1.04
COc1cc([S+](C)[O-])ccc1-c1nc2cccnc2[nH]1 (configuration not stated) [Sulmazole]	1.11
C[C@H](CCC(=O)O)[C@H]1CC[C@H]2[C@@H]3[C@H](O)C[C@@H]4C[C@H](O)CC[C@]4(C)[C@H]3C[C@H](O)[C@]12C [Cholic acid]	0.982
O=c1ccc2cc(O)c(O)cc2o1 [Esculetin]	0.972
COc1ccc(CCN(C)CCCN2CCc3cc(OC)c(OC)cc3CC2=O)cc1OC [Zatebradine hydrochloride]	0.957
O=C(OCC(O)CO)c1ccccc1Nc1ccnc2cc(Cl)ccc12 (configuration not stated) [Glafenine hydrochloride]	0.994
COc1cc(N)c(Cl)cc1C(=O)OCCCN1CCCCC1	1.07
CC(C(=O)O)c1ccc(-c2ccccc2)c(F)c1 (configuration not stated) [Flurbiprofen]	0.988 ± 0.044
COc1cc2c(N3CCN(C(=O)Nc4ccc(OC(C)C)cc4)CC3)ncnc2cc1OCCCN1CCCCC1 [Tandutinib (MLN518)]	1.06

Laid out differently: entries from further up.
Structure (SMILES) | surface PD-L1 immunofluorescence intensity
Cc1ccccc1C(=O)Nc1ccc(C(=O)N2CCCC(O)c3cc(Cl)ccc32)c(C)c1 (configuration not stated) | 0.974
COc1ccccc1N1CCN(CCN2C(=O)c3ccccc3C(C)(C)C2=O)CC1 [ARC 239 dihydrochloride] | 1

(cont.)

Structure (SMILES)	surface PD-L1 immunofluorescence intensity
NC(=O)c1cn(Cc2c(F)cccc2F)nn1 [Rufinamide (Banzel)]	0.905
Cc1cc(O)c2c(c1)C(=O)c1cccc(O)c1C2=O [Chrysophanic acid (Chrysophanol)]	1.04 ± 0.012
CN[C@@H](C)C(=O)N[C@H]1CN(C(=O)CC(C)C)CC[C@H]2CC[C@@H](C(=O)NC(c3ccccc3)c3ccccc3)N2C1=O	1.03
CN1[C@@H]2CC[C@H]1C[C@@H](OC(=O)c1c[nH]c3ccccc13)C2 [Tropisetron hydrochloride]	1.02
CN1[C@@H]2CC[C@H]1C[C@@H](OC(=O)c1c[nH]c3ccccc13)C2 [Tropisetron HCl]	0.945
COc1ccccc1N1CCN(CCCCN2C(=O)c3ccccc3C2=O)CC1 [NAN-190 hydrobromide]	1.06
Cc1cccc(C)c1OCC(C)N (configuration not stated) [Mexiletine hydrochloride]	0.959 ± 0.14
Nc1nc(CC(=O)Nc2ccc(CCNC[C@H](O)c3ccccc3)cc2)cs1 [Mirabegron (YM178)]	1.04
NC[C@@H]1O[C@H](O[C@H]2[C@@H](O)[C@H](O[C@@H]3[C@@H](O)[C@H](N)C[C@H](N)[C@H]3O[C@H]3O[C@H](CO)[C@@H](O)[C@H](O)[C@H]3N)O[C@@H]2CO)[C@H](N)[C@@H](O)[C@@H]1O [Paromomycin sulfate]	1.1
COc1ccccc1OCC(O)CO (configuration not stated) [Guaifenesin]	0.952
Cc1cc(=O)[nH]c(=S)[nH]1 [Methylthiouracil]	0.963
O=C(O)c1ccc(N2C(=O)C(=Cc3ccccc3)SC2=S)cc1	1.06
CC(=O)[C@H]1CC[C@H]2[C@@H]3C=CC4=CC(=O)CC[C@@]4(C)[C@@H]3CC[C@]12C [Dydrogesterone]	0.953
Cc1c(N(C)C)c(=O)n(-c2ccccc2)n1C [Amidopyrine]	0.914
Oc1c(Cl)cc(Cl)c(Cl)c1Cc1c(O)c(Cl)cc(Cl)c1Cl [Hexachlorophene]	1.09 ± 0.053
C=C1C(=O)[C@]23[C@H](O)[C@H]1CC[C@H]2[C@@]12CO[C@]3(O)[C@@H](O)[C@@H]1C(C)(C)CC[C@@H]2O [Oridonin (Isodonol)]	1.09
COc1ccc(/C=C/C(=O)Nc2ccccc2C(=O)O)cc1OC [Tranilast]	1.03 ± 0.097
Oc1ccc(/C=C/c2cc(O)cc(O)c2)cc1 [Resveratrol]	1.05 ± 0.052
CN1CCN(CCCN2c3ccccc3Sc3ccc(C(F)(F)F)cc32)CC1 [Trifluoperazine dihydrochloride]	0.912
CC(S)C(=O)NCC(=O)O (configuration not stated) [Tiopronin (Thiola)]	1.17
CN(C)CCN1C(=O)c2ccccc2N(C)c2ccccc21 [Dibenzepine hydrochloride]	0.962
CNC[C@H](O)c1ccc(O)c(O)c1 [Epinephrine bitartrate (Adrenalinium)]	1.01
CC(C)NCC(O)COc1ccccc1-n1cccc1 (configuration not stated) [Isamoltane hemifumarate]	1.01
